# In the supplement of paper PMC8728848:
# The list shows a part of the results.
# B1: OS9 (Arabidopsis thaliana) (protein)
# chain: MRGSHHHHHHGMASMTGGQQMGRDLYDDDDKSRLQIFPAHLVGTFSRNNREPKYKIEFLPEDSPFHPGDNLESMVMLDKHGNRFLCYLPKEEKATSGWTSSQQNISTVMMETQQLVKLKTPDELLQPLSEKCLFRQEGWWSYEFCHQKYVRQLHVEDENKIVQEFFLGTFDPEATAAFNQTVSDASTDASQRYHSHVYTNGTTCDLTGSPREVEVRFVCAETRAMVTSITELSTCKYALTVQCPTLCKHPLFQLEKPVSHTIHCNAIPVEEDATRNKEEQAVDESPKMIADS
# How the values were obtained:
# Test in all cases: glycan array binding signal (z-score within array); higher = stronger binding
# Settings in all cases: glycan notation: IUPAC condensed, linker removed
# [1] = molecular target: GalNAc(b1-4)GlcNAc(b1-2)Man
# Outline: (§1)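 Negative Z-scores can be read as non-binding. The Z-score is calculated within each array and then averaged across arrays of one protein sequence at different concentrations or buffers and across linkers. Arrays, 3228 in all, were curated from the Consortium for Functional Glycomics database and kept only where the protein sequence was available.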
# [2] = molecular target: GalNAc(b1-4)GlcNAc(b1-2)Man(a1-3)[GalNAc(b1-4)GlcNAc(b1-2)Man(a1-6)]Man(b1-4)GlcNAc(b1-4)GlcNAc
# Outline: as §1
# [3] = molecular target: GalNAc(b1-4)GlcNAc(b1-3)GalNAc(b1-4)GlcNAc
# Outline: as §1
# GalNAc(b1-4)GlcNAc6S = molecular target: GalNAc(b1-4)GlcNAc6S
# Outline: as §1
# GalNAc(b1-6)GalNAc = molecular target: GalNAc(b1-6)GalNAc
# Outline: as §1
# GalNAc3S(b1-4)GlcNAc = molecular target: GalNAc3S(b1-4)GlcNAc
# Outline: as §1
# GalNAc3S(b1-4)GlcNAc3S = molecular target: GalNAc3S(b1-4)GlcNAc3S
# Outline: as §1
# [4] = molecular target: GalNAc3S(b1-4)[Fuc(a1-3)]GlcNAc
# Outline: as §1
# GalNAc4S6S(b1-4)GlcNAc = molecular target: GalNAc4S6S(b1-4)GlcNAc
# Outline: as §1
# GalNAc6S(b1-4)GlcNAc = molecular target: GalNAc6S(b1-4)GlcNAc
# Outline: as §1
# Glc(a1-4)Glc = molecular target: Glc(a1-4)Glc
# Outline: as §1
# [5] = molecular target: Glc(a1-4)Glc(a1-4)Glc(a1-4)Glc
# Outline: as §1
# Glc(a1-6)Glc(a1-6)Glc = molecular target: Glc(a1-6)Glc(a1-6)Glc
# Outline: as §1
# [6] = molecular target: Glc(a1-6)Glc(a1-6)Glc(a1-6)Glc
# Outline: as §1
# Glc(b1-4)Glc = molecular target: Glc(b1-4)Glc
# Outline: as §1
# Glc(b1-6)Glc = molecular target: Glc(b1-6)Glc
# Outline: as §1
# GlcA(b1-3)Gal = molecular target: GlcA(b1-3)Gal
# Outline: as §1
# GlcA(b1-3)GlcNAc = molecular target: GlcA(b1-3)GlcNAc
# Outline: as §1
# GlcA(b1-6)Gal = molecular target: GlcA(b1-6)Gal
# Outline: as §1
# [7] = molecular target: GlcA3S(b1-3)Gal(b1-4)GlcNAc(b1-2)Man
# Outline: as §1
# [8] = molecular target: GlcA3S(b1-3)Gal(b1-4)GlcNAc(b1-3)Gal(b1-4)Glc
# Outline: as §1
# [9] = molecular target: GlcNAc(a1-3)Gal(b1-4)GlcNAc
# Outline: as §1
# [10] = molecular target: GlcNAc(a1-4)Gal(b1-3)GlcNAc
# Outline: as §1
# [11] = molecular target: GlcNAc(a1-4)Gal(b1-4)GalNAc
# Outline: as §1
# [12] = molecular target: GlcNAc(a1-4)Gal(b1-4)GlcNAc
# Outline: as §1
# [13] = molecular target: GlcNAc(a1-4)Gal(b1-4)GlcNAc(b1-3)Gal(b1-4)Glc
# Outline: as §1
# [14] = molecular target: GlcNAc(a1-4)Gal(b1-4)GlcNAc(b1-3)Gal(b1-4)GlcNAc
# Outline: as §1
# [15] = molecular target: GlcNAc(a1-4)Gal(b1-4)GlcNAc(b1-3)Gal(b1-4)GlcNAc(b1-3)Gal(b1-4)GlcNAc
# Outline: as §1
# [16] = molecular target: GlcNAc(a1-4)Gal(b1-4)GlcNAc(b1-3)Gal(b1-4)[Fuc(a1-3)]GlcNAc(b1-3)Gal(b1-4)[Fuc(a1-3)]GlcNAc
# Outline: as §1
# [17] = molecular target: GlcNAc(a1-6)Gal(b1-4)GlcNAc
# Outline: as §1
# [18] = molecular target: GlcNAc(b1-2)Gal(b1-3)GalNAc
# Outline: as §1
# [19] = molecular target: GlcNAc(b1-2)Man(a1-3)[GlcNAc(b1-2)Man(a1-6)]Man(b1-4)GlcNAc(b1-4)GlcNAc
# Outline: as §1
# [20] = molecular target: GlcNAc(b1-2)Man(a1-3)[GlcNAc(b1-2)Man(a1-6)]Man(b1-4)GlcNAc(b1-4)[Fuc(a1-6)]GlcNAc
# Outline: as §1
# [21] = molecular target: GlcNAc(b1-2)Man(a1-3)[GlcNAc(b1-4)][GlcNAc(b1-2)Man(a1-6)]Man(b1-4)GlcNAc(b1-4)GlcNAc
# Outline: as §1
# [22] = molecular target: GlcNAc(b1-2)Man(a1-3)[GlcNAc(b1-4)][GlcNAc(b1-2)Man(a1-6)]Man(b1-4)GlcNAc(b1-4)[Fuc(a1-6)]GlcNAc
# Outline: as §1
# [23] = molecular target: GlcNAc(b1-2)[GlcNAc(b1-4)]Man(a1-3)[GlcNAc(b1-2)Man(a1-6)]Man(b1-4)GlcNAc(b1-4)GlcNAc
# Outline: as §1
# [24] = molecular target: GlcNAc(b1-2)[GlcNAc(b1-4)]Man(a1-3)[GlcNAc(b1-4)][GlcNAc(b1-2)Man(a1-6)]Man(b1-4)GlcNAc(b1-4)GlcNAc
# Outline: as §1
binder,measurement,setting,value
B1,glycan array binding signal (z-score),[1],3.58
same,glycan array binding signal (z-score),[2],-0.023
same,glycan array binding signal (z-score),[3],1.14
same,glycan array binding signal (z-score),GalNAc(b1-4)GlcNAc6S,0.489
same,glycan array binding signal (z-score),GalNAc(b1-6)GalNAc,1.2
same,glycan array binding signal (z-score),GalNAc3S(b1-4)GlcNAc,2.22
same,glycan array binding signal (z-score),GalNAc3S(b1-4)GlcNAc3S,-0.058
same,glycan array binding signal (z-score),[4],-0.073
same,glycan array binding signal (z-score),GalNAc4S6S(b1-4)GlcNAc,-0.344
same,glycan array binding signal (z-score),GalNAc6S(b1-4)GlcNAc,-0.314
same,glycan array binding signal (z-score),Glc(a1-4)Glc,1.98
same,glycan array binding signal (z-score),[5],1.34
same,glycan array binding signal (z-score),Glc(a1-6)Glc(a1-6)Glc,-0.542
same,glycan array binding signal (z-score),[6],0.454
same,glycan array binding signal (z-score),Glc(b1-4)Glc,-0.522
same,glycan array binding signal (z-score),Glc(b1-6)Glc,0.2
same,glycan array binding signal (z-score),GlcA(b1-3)Gal,0.001
same,glycan array binding signal (z-score),GlcA(b1-3)GlcNAc,-0.142
same,glycan array binding signal (z-score),GlcA(b1-6)Gal,-0.646
same,glycan array binding signal (z-score),[7],2.29
same,glycan array binding signal (z-score),[8],-0.647
same,glycan array binding signal (z-score),[9],0.737
same,glycan array binding signal (z-score),[10],-0.06
same,glycan array binding signal (z-score),[11],0.379
same,glycan array binding signal (z-score),[12],-0.812
same,glycan array binding signal (z-score),[13],-0.706
same,glycan array binding signal (z-score),[14],-0.549
same,glycan array binding signal (z-score),[15],-0.35
same,glycan array binding signal (z-score),[16],-1.33
same,glycan array binding signal (z-score),[17],-0.016
same,glycan array binding signal (z-score),[18],0.066
same,glycan array binding signal (z-score),[19],-1.16
same,glycan array binding signal (z-score),[20],-0.237
same,glycan array binding signal (z-score),[21],-0.105
same,glycan array binding signal (z-score),[22],-1.1
same,glycan array binding signal (z-score),[23],-0.735
same,glycan array binding signal (z-score),[24],-0.147

# Nothing new here: an excerpt of the list.
binder,measurement,setting,value
B1,glycan array binding signal (z-score),[3],1.14
same,glycan array binding signal (z-score),GalNAc(b1-4)GlcNAc6S,0.489
same,glycan array binding signal (z-score),GalNAc(b1-6)GalNAc,1.2
same,glycan array binding signal (z-score),GalNAc3S(b1-4)GlcNAc,2.22
same,glycan array binding signal (z-score),GalNAc3S(b1-4)GlcNAc3S,-0.058
same,glycan array binding signal (z-score),[4],-0.073
same,glycan array binding signal (z-score),GalNAc4S6S(b1-4)GlcNAc,-0.344
